Results deposited as PubChem BioAssay AID504764 (Drosophila RNAi Screening Center, 2011)
The screen tested about 22,000 reagents; below is an unselected part of those with a known target gene and a result. In the full data, 403 (1.9%) got an active call. 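Unnormalised raw counts per well; ratio z-scores behind the hit calls and whether each hit raises or lowers signal are not deposited.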 The numbers tell different reagents against one gene apart. Names joined by + are all predicted targets of the reagent. No sequences are given here. Not given: the amount of reagent.

Assay: 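Genes whose knock-down alters Notch-dependent transcription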 (primary screen)
System: Drosophila Kc167 cells
Reagents: long dsRNA against Drosophila genes
Duration: about 5 days (4 days dsRNA, then 24 h after transfection)
Treatment: transfection of constitutively active membrane-tethered Notch lacking the extracellular domain, read 24 h later
Detection: 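Light from a Notch-responsive E(spl)m3 luciferase reporter under active Notch, with control-promoter and no-Notch reporter wells to normalise; raw counts from paired wells a and b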
Direction: induced reporter light, run 1, well a and induced reporter light, run 1, well b: higher = more light from the Notch target reporter with active Notch; control promoter light, run 1, well a and control promoter light, run 1, well b: higher = more light from the viral control promoter (cell number, transfection, viability); uninduced reporter light, run 1, well a: higher = more light from the Notch target reporter without active Notch
Hit rule: 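Wells with low control signal or poorly matching duplicates excluded; duplicates averaged; per source plate, z beyond ±2 for induced/control log2 ratio or beyond ±1.8 for induced/uninduced marks a hit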
Meaning of the calls: active = modifier hit (raised or lowered Notch signal); inactive = not a hit

gene knocked down | reagent | induced reporter light, run 1, well a | induced reporter light, run 1, well b | control promoter light, run 1, well a | control promoter light, run 1, well b | uninduced reporter light, run 1, well a | call
RAF2 | 1 | 1.10e5 | 1.43e5 | 75390 | 80445 | 9910 | inactive
RAF2 | 2 | 2.02e5 | 1.57e5 | 2.05e5 | 1.82e5 | 8895 | inactive
CG18609 | 1 | 1.21e5 | 1.04e5 | 1.19e5 | 1.35e5 | 8775 | inactive
Fer2LCH | 1 | 1.34e5 | 1.17e5 | 1.99e5 | 2.20e5 | 12332 | inactive
f | 1 | 1.99e5 | 1.51e5 | 2.38e5 | 2.40e5 | 13905 | inactive
f | 2 | 86390 | 1.09e5 | 1.69e5 | 1.65e5 | 13185 | inactive
f | 3 | 78510 | 55465 | 67450 | 61130 | 10160 | inactive
CG32727 | 1 | 79455 | 68010 | 75875 | 57800 | 4675 | inactive
CheB53a | 1 | 1.40e5 | 1.03e5 | 1.06e5 | 99380 | 13820 | inactive
CG14301 | 1 | 2.06e5 | 1.76e5 | 1.99e5 | 2.09e5 | 13755 | inactive
AnxB11 | 1 | 1.36e5 | 1.18e5 | 1.87e5 | 1.50e5 | 10820 | inactive
stil | 1 | 1.82e5 | 1.85e5 | 1.85e5 | 1.91e5 | 14855 | inactive
CG5681 | 1 | 1.49e5 | 1.55e5 | 1.61e5 | 1.51e5 | 12800 | inactive
sstn | 1 | 1.47e5 | 1.59e5 | 1.30e5 | 1.16e5 | 9150 | active
Brd7-9 | 1 | 2.89e5 | 2.40e5 | 3.12e5 | 3.30e5 | 22735 | inactive
Rexo5 | 1 | 1.93e5 | 1.85e5 | 3.15e5 | 1.96e5 | 10400 | inactive
mthl15 | 1 | 1.17e5 | 84180 | 97790 | 79285 | 5750 | inactive
rdgA | 1 | 1.40e5 | 1.49e5 | 2.90e5 | 3.39e5 | 11895 | inactive
rdgA | 2 | 1.49e5 | 1.89e5 | 3.39e5 | 2.55e5 | 10085 | inactive
rdgA | 3 | 2.50e5 | 1.99e5 | 1.81e5 | 1.99e5 | 11865 | active
RpL4 | 1 | 15890 | 18465 | 22180 | 23710 | 1005 | inactive
CG30495 | 1 | 1.75e5 | 1.67e5 | 2.40e5 | 2.09e5 | 16315 | inactive
TER94 | 1 | 44345 | 47160 | 36180 | 31355 | 4275 | inactive
CG14042 + SP555 | 1 | 67080 | 62320 | 55575 | 52430 | 7670 | inactive
CG14042 + SP555 | 2 | 1.67e5 | 1.53e5 | 1.69e5 | 1.96e5 | 11555 | inactive
CG17224 | 1 | 1.88e5 | 1.81e5 | 2.72e5 | 2.18e5 | 13460 | inactive
Usp32 | 1 | 40605 | 32870 | 30040 | 26630 | 2890 | inactive

Part of the list above, set out differently.
{"gene knocked down":"mthl15","reagent":1,"induced reporter light, run 1, well a":1.17e5,"induced reporter light, run 1, well b":84180,"control promoter light, run 1, well a":97790,"control promoter light, run 1, well b":79285,"uninduced reporter light, run 1, well a":5750,"call":"inactive"}
{"gene knocked down":"rdgA","reagent":1,"induced reporter light, run 1, well a":1.40e5,"induced reporter light, run 1, well b":1.49e5,"control promoter light, run 1, well a":2.90e5,"control promoter light, run 1, well b":3.39e5,"uninduced reporter light, run 1, well a":11895,"call":"inactive"}
{"gene knocked down":"rdgA","reagent":2,"induced reporter light, run 1, well a":1.49e5,"induced reporter light, run 1, well b":1.89e5,"control promoter light, run 1, well a":3.39e5,"control promoter light, run 1, well b":2.55e5,"uninduced reporter light, run 1, well a":10085,"call":"inactive"}
{"gene knocked down":"rdgA","reagent":3,"induced reporter light, run 1, well a":2.50e5,"induced reporter light, run 1, well b":1.99e5,"control promoter light, run 1, well a":1.81e5,"control promoter light, run 1, well b":1.99e5,"uninduced reporter light, run 1, well a":11865,"call":"active"}
{"gene knocked down":"RpL4","reagent":1,"induced reporter light, run 1, well a":15890,"induced reporter light, run 1, well b":18465,"control promoter light, run 1, well a":22180,"control promoter light, run 1, well b":23710,"uninduced reporter light, run 1, well a":1005,"call":"inactive"}

Further entries follow.
gene knocked down | reagent | induced reporter light, run 1, well a | induced reporter light, run 1, well b | control promoter light, run 1, well a | control promoter light, run 1, well b | uninduced reporter light, run 1, well a | call
Jhbp5 | 1 | 1.89e5 | 2.12e5 | 2.22e5 | 2.11e5 | 18695 | inactive
Surf1 | 1 | 1.68e5 | 1.42e5 | 1.70e5 | 1.39e5 | 7870 | inactive
Surf1 | 2 | 1.30e5 | 1.01e5 | 87920 | 31730 | 10000 | inactive
Obp83cd | 1 | 83590 | 80385 | 57930 | 57890 | 7435 | inactive
Cdc2rk | 1 | 1.97e5 | 1.68e5 | 2.11e5 | 2.30e5 | 15795 | inactive
scrib | 1 | 1.64e5 | 1.46e5 | 1.51e5 | 1.62e5 | 13805 | inactive
scrib | 2 | 1.67e5 | 1.69e5 | 2.03e5 | 2.09e5 | 11125 | inactive
scrib | 3 | 1.59e5 | 95665 | 2.01e5 | 1.75e5 | 12080 | inactive
upd2 | 1 | 1.09e5 | 85355 | 1.08e5 | 1.02e5 | 13290 | inactive
CCAP | 1 | 1.48e5 | 1.48e5 | 1.85e5 | 1.81e5 | 12355 | inactive
SCCRO | 1 | 2.65e5 | 2.26e5 | 2.76e5 | 2.78e5 | 6580 | active
CG31915 | 1 | 1.39e5 | 1.25e5 | 1.93e5 | 1.40e5 | 9780 | inactive
Optix | 1 | 95020 | 1.11e5 | 1.31e5 | 1.36e5 | 4635 | inactive
Optix | 2 | 1.44e5 | 1.52e5 | 1.39e5 | 1.29e5 | 10960 | inactive
Optix | 3 | – | – | – | – | – | inactive
Apoltp | 1 | 2.16e5 | 2.43e5 | 2.44e5 | 2.61e5 | 20275 | inactive
CG3330 | 1 | 51630 | 69860 | 55950 | 55310 | 3870 | inactive
Rap2l | 1 | 1.49e5 | 1.41e5 | 1.64e5 | 1.44e5 | 12842 | inactive
TotM | 1 | 1.62e5 | 1.18e5 | 1.74e5 | 1.77e5 | 7845 | inactive
Sgsh | 1 | 2.10e5 | 1.83e5 | 2.36e5 | 2.54e5 | 17295 | inactive
CG6195 | 1 | 1.98e5 | 1.91e5 | 1.88e5 | 1.86e5 | 14720 | inactive
Bruce | 1 | 40180 | 56620 | 51485 | 45775 | 6425 | inactive
Trm7-34 | 1 | 1.54e5 | 1.67e5 | 1.75e5 | 2.10e5 | 14190 | inactive
